Measured values as given in paper PMC8541381.
Results are given in words; binding and its absence hold for the method and conditions named. For some assays here: A result given as binding can be weak or reduced; the word gives no strength.

By UniProt entry, the sequences of proteins in these tests, tags left out. Where a name states a change or a piece, a line headed by the entry shows the natural chain unless it says otherwise.
UniProt Q4W3B3: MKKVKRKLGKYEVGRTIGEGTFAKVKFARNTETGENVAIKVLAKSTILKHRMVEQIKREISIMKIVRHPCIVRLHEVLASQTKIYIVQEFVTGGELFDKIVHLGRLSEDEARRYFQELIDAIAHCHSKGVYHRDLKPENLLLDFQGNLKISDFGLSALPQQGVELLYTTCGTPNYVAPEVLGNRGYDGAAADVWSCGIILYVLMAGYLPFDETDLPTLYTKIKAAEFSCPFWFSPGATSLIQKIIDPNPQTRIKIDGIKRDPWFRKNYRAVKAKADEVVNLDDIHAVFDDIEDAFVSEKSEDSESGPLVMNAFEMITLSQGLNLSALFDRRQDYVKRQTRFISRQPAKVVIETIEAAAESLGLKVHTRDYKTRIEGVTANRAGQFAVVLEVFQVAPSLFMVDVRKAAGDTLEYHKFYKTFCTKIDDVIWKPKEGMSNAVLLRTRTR
UniProt Q4W3B4: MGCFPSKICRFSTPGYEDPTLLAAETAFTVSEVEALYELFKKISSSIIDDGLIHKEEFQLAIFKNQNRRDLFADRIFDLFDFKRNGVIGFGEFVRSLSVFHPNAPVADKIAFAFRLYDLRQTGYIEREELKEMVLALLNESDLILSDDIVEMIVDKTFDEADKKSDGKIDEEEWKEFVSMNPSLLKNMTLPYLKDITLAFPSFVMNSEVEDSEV
UniProt O81223: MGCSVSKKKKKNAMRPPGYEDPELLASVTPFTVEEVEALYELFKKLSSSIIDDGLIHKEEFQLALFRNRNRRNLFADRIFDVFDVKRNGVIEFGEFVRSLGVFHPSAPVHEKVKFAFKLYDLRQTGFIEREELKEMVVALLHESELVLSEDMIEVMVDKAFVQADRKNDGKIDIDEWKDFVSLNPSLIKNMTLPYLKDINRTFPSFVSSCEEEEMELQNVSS

B1: AtCIPK24 (pGAD⋅AtCIPK24) (protein, UniProt Q9LDI3 1-446)
chain: MTKKMRRVGKYEVGRTIGEGTFAKVKFARNTDTGDNVAIKIMAKSTILKNRMVDQIKREISIMKIVRHPNIVRLYEVLASPSKIYIVLEFVTGGELFDRIVHKGRLEESESRKYFQQLVDAVAHCHCKGVYHRDLKPENLLLDTNGNLKVSDFGLSALPQEGVELLRTTCGTPNYVAPEVLSGQGYDGSAADIWSCGVILFVILAGYLPFSETDLPGLYRKINAAEFSCPPWFSAEVKFLIHRILDPNPKTRIQIQGIKKDPWFRLNYVPIRAREEEEVNLDDIRAVFDGIEGSYVAENVERNDEGPLMMNAFEMITLSQGLNLSALFDRRQDFVKRQTRFVSRREPSEIIANIEAVANSMGFKSHTRNFKTRLEGLSSIKAGQLAVVIEIYEVAPSLFMVDVRKAAGETLEYHKFYKKLCSKLENIIWRATEGIPKSEILRTITF

What was measured:
[1] = molecular target: GST-SlCIPK24 (Solanum lycopersicum (tomato)) (UniProt Q4W3B3); assay: pull-down; GST or GST-SlCIPK24 bait on glutathione-Sepharose 4B beads, SlCBL4:c-Myc prey, 4 °C, 1 h, 50 mM Tris-HCl pH 7.4, 100 mM NaCl, 0.05% Tween 20, 1 mM PMSF, with 2 mM EGTA (absence of calcium); immunoblot with anti-c-Myc; both purified
[2] = molecular target: GST-SlCIPK24 (Solanum lycopersicum (tomato)) (UniProt Q4W3B3); assay: pull-down; GST or GST-SlCIPK24 bait on glutathione-Sepharose 4B beads, SlCBL4:c-Myc prey, 4 °C, 1 h, 50 mM Tris-HCl pH 7.4, 100 mM NaCl, 0.05% Tween 20, 1 mM PMSF, with 1 mM CaCl2; immunoblot with anti-c-Myc; both purified
[3] = molecular target: BD⋅SlCBL4 (Solanum lycopersicum (tomato)) (UniProt Q4W3B4); assay: two-hybrid; Gal4p-based system, BD (pGBT9.BS) and AD (pGAD.GH) plasmids in yeast Y190; growth on SC-HLW (HIS3) and β-galactosidase filter-lift assay (LacZ)
[4] = molecular target: AtCBL4 (pGBT⋅AtCBL4) (Arabidopsis) (UniProt O81223); assay: as above

| Molecule | binding [1] | binding [2] | binding [3] | binding [4] |
| --- | --- | --- | --- | --- |
| SlCBL4:c-Myc (from UniProt Q4W3B4) | no binding (only in the absence of Ca2+ (2 mM EGTA)) | binds |  |  |
| AD⋅SlCIPK24 (from UniProt Q4W3B3) |  |  | binds | binds |
| B1 |  |  | binds |  |
